According to patent US20220389113A1, “BINDING PROTEINS TO CUB DOMAIN-CONTAINING PROTEIN (CDCP1)” (COMMONWEALTH SCIENTIFIC AND INDUSTRIAL RESEARCH ORGANISATION, priority 2019, published 2022):
These are yes or no findings as the source states them, for the method shown. For some assays here: In cells and extracts the contact can be indirect. Some entries that bind do so weakly or less than the wild type.

How the values were obtained:
[1] = molecular target: T1, CDCP1 carboxyl-terminal fragment (CDCP1-CTF), 70 kDa (human) (UniProt Q9H5V8); assay: summary of co-IP, SEC and reducing/non-reducing Western blots
T1 sequence: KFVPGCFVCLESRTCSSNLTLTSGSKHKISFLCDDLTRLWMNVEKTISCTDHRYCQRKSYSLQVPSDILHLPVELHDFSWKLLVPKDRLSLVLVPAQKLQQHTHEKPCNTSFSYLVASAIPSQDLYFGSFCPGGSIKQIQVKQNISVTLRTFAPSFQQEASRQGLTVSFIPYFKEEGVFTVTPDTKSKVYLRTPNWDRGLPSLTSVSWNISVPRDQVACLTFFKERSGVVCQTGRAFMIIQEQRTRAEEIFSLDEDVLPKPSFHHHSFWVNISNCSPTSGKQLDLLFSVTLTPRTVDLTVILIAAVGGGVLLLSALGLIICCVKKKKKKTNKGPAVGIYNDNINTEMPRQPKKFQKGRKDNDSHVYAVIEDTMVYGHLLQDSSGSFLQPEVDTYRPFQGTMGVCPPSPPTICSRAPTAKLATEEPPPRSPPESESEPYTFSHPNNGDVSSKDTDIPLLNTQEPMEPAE

[2] = molecular target: T1, CDCP1 carboxyl-terminal fragment (CDCP1-CTF), 70 kDa (human); assay: co-immunoprecipitation with 10D7 (binds the ATF), CTF detected with 4115
[3] = molecular target: T1, CDCP1 carboxyl-terminal fragment (CDCP1-CTF), 70 kDa (human); assay: co-immunoprecipitation with 10D7, whose site lies in ATF; Western blot with 4115 and 2666
[4] = molecular target: T1, CDCP1 carboxyl-terminal fragment (CDCP1-CTF), 70 kDa (human); assay: size-exclusion chromatography of trypsin-cleaved recombinant CDCP1-ECD; products of ~45 and 55 kDa co-eluted with intact ECD
[5] = molecular target: T1, CDCP1 carboxyl-terminal fragment (CDCP1-CTF), 70 kDa (human); assay: size-exclusion chromatography of untreated or trypsin treated recombinant CDCP1-ECD, Coomassie gel of the fractions; paragraph 333 reads it as ATF-CTF interaction

Measured: binding

B1: CDCP1 amino-terminal fragment (CDCP1-ATF), 65 kDa (receptor)
chain: FEIALPRESNITVLIKLGTPTLLAKPCYIVISKRHITMLSIKSGERIVFTFSCQSPENHFVIEIQKNIDCMSGPCPFGEVQLQPSTSLLPTLNRTFIWDVKAHKSIGLELQFSIPRLRQIGPGESCPDGVTHSISGRIDATVVRIGTFCSNGTVSRIKMQEGVKMALHLPWFHPRNVSGFSIANRSSIKRLCIIESVFEGEGSATLMSANYPEGFPEDELMTWQFVVPAHLRASVSFLNFNLSNCERKEERVEYYIPGSTTNPEVFKLEDKQPGNMAGNFNLSLQGCDQDAQSPGILRLQFQVLVQHPQNESNKIYVVDLSNERAMSLTIEPRPVKQSR
notes: Product of proteolytic cleavage of CDCP1
binds: [1] | [2] | [3] | [4] | [5]
